Drawing on the supplement of paper PMC5949888, this text covers growth estimate for 79 substances.

Most values lie at the floor of the assay. Slopes are relative: functional sequences can read slightly below zero. Where only a bound is given, the exact number is not on record here.

This data set deals with Saccharomyces cerevisiae PS128 hsf1 delta, HSF1(1-493) fusion. Kind of data set: growth estimate (transactivation domain function in HSF1 fusion, heat-shock survival) (a.u. (slope of normalised read count over time)); higher = stronger growth at 37°C, i.e. more transactivation activity. The note with it: library: random library.
For the substance GAKDQPGLGGKPVHRCKLTV, the growth estimate is below -0.25.
KRAAGGTRPSTRVPDSK: the growth estimate is below -0.25.
For DGV, the growth estimate was below -0.25.
To HQDKYRPVIGQRLDDELSKR belongs below -0.25; to CCPAPMEGDFWFR, -0.229.
For RTCA the value was below -0.25; for RVGFWASGHPGALFAGKGIL, below -0.25; for FALYA, below -0.25.
To GSAESSLHAMRAHAARGFGA belongs below -0.25; to DNRKGLVSYRPL, below -0.25.
On to GPPARSVHSEQRLARCHIGR, for which the growth estimate was below -0.25.
Consider PKHAVTRCIEYC, for which the growth estimate is -0.243.
To CERYVRRHSSIGPLTRLGGP belongs below -0.25.
Consider LASRQS, for which the growth estimate was below -0.25.
Consider IRIQFDK, for which the growth estimate was below -0.25.
NGRVREGKRGIWS: the growth estimate was below -0.25.
To IPTGPHQPAPLVVRA belongs below -0.25; to CDRLHRCEMRRLAIYHTR, -0.122; to AYIGIAFS, below -0.25.
CVTNRFRACTVVGMVQWGTS: the growth estimate was below -0.25.
For VMPADKLPGRHFQSWHFNPA, the growth estimate was -0.246.
Turning to MFERGHASNIHAPVPWGLRD, the growth estimate is below -0.25.
On to PAKKMRVGCAVPHVDGSGWL, for which the growth estimate is below -0.25.
Take QFVPCVARTGAFKTYTTPSS: the growth estimate was below -0.25.
For GICNCKKWSGV the value was below -0.25; for LVWNKLAEVLLSPMHLFSDP, below -0.25.
For KCDDLLANIAGSDNGTYTPG the value was below -0.25; for LGLARCMQS, below -0.25.
Regarding PSGTTNFDHG, the growth estimate was below -0.25.
To GWVPMGNWSAHQRGKSCGAW belongs below -0.25; to KNDLGWARRISG, below -0.25.
Turning to LGPDGPE, the growth estimate was below -0.25.
To CRSPPASGPT belongs below -0.25.
Take LIAVWLL: the growth estimate was below -0.25.
Regarding DAGRGWPWQWKALAGLGRNG, the growth estimate was below -0.25.
For DGWGW the value was below -0.25.
To VSSCMDGIDETKESRGAHTY belongs below -0.25.
Turning to RQKCNRATRAILIGGRLSYW, the growth estimate was below -0.25.
For PVRYSRRA the value was below -0.25; for QEDNGGLRGGGAQVR, below -0.25; for TTGRKRIVVLKFAISVRARG, below -0.25.
Consider FTRQPLLLAERIVVSGISSV, for which the growth estimate is below -0.25.
VGVNGERAMEGGFLP: the growth estimate was below -0.25.
For SDEWRPDRCSSCNKAISAHT the value was below -0.25.
For RYLFEDHGQREVHGFGTWRG the value was below -0.25; for SKRLPFLM, below -0.25; for GRVPKG, below -0.25.
As to VGIRSRTSG, the growth estimate was below -0.25.
To CGNADHWGLRVTPGQAHERT belongs below -0.25; to NRKCRGSFTCNRSAPSLTPR, below -0.25.
Take RRMSNLELRDVMEQK: the growth estimate was below -0.25.
As to CIRA, the growth estimate was below -0.25.
As to SMQSGSLPACIAPGARGPTD, the growth estimate was below -0.25.
For KCLDCVLFPDLTVGRRVI the value was below -0.25; for EPERGLTYQVVVSSSDYFRR, below -0.25; for ASGGNRQISSTQLEMHRRTG, below -0.25.
For LEACSGRCFDPACTVGA the value was below -0.25.
For SDCVANFRSRK, the growth estimate was below -0.25.
To ENGPEFL belongs below -0.25.
For RKWEESMPPAGTKSKKGWGC the value was below -0.25; for LQRPPRILDNSESVVLERRS, below -0.25.
For CHDGRPTFGLTTRRVSKKSR the value was below -0.25.
Turning to VFTVVRSTVSSAAHVDVQPA, the growth estimate is below -0.25.
For FARWD the value was below -0.25; for STGVCLLLLRTKPNSRGRRK, below -0.25; for GVEMISHVNGRQLARSYPHR, below -0.25.
For LRDGLAADWSVAVSLTYTGI the value was below -0.25; for RRYWILRHNYRTD, below -0.25.
For LRLFEYFEGIFFLRGSR, the growth estimate is below -0.25.
In the case of RPYSGHRLCP, the growth estimate is below -0.25.
For YRGHVFAPVSSQCELDAGTD the value was below -0.25; for LAFGSSA, below -0.25; for PWNGYVV, below -0.25.
For ILL the value was below -0.25; for CHHIRRRY, below -0.25.
To ADDGGTVKWLSSSVKFTKQD belongs below -0.25.
Consider TRLEASPAYQFPERTRATGS, for which the growth estimate was below -0.25.
As for TVDIRGTAHAPSTVHPTTVP, the growth estimate was below -0.25.
To MYISGDG belongs below -0.25.
